Drawing on the supplement of paper PMC11237882, this text covers enrichment score for 44 molecules.

Some of the results follow. Values are worked out from sequencing counts and are noisy.

The chains are these.
T1: Homer1 EVH1 domain
T1 chain: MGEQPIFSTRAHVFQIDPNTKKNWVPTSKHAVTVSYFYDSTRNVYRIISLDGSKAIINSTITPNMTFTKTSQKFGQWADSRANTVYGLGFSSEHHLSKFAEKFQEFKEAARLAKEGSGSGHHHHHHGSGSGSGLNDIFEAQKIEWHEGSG

The test concerns the target T1, Homer1 EVH1 domain. In words: enrichment score (AUC of log2 frequency ratio across FACS sorting rounds) (log2 AUC); higher = stronger enrichment for Homer1 EVH1 binding.
Regarding MGAGLSWYHGVMGLLHPQPIESLLWAYCILAGSLVS, the enrichment score was determined as 0.835.

VTSLGKYIFASILGHVIHGGIVLPLIYFVFTRKNPF: the enrichment score was -2.26.

With SEERRRPHKEEEEEAYYPPAPPPYSETDSQASRERR, the enrichment score was 5.64.

With VKDRTISFLGCVVQFFFFCTFVVTESFLLAVMAYDL, the enrichment score is 1.28.

For the molecule ERTSEETIRIYSLRLFLNCIVLAVLGACFYAIYVAT, the enrichment score worked out at 2.59.

As to TNYPLMMLTAGLLISNCLCHFFIFPWCQPCLHIRAA, the enrichment score was 2.37.

Consider EPSSETGNPRHLHVLIGTSVVKLPFTILLFFLLHRW, for which the enrichment score is 1.17.

Consider LSRTSTALPADSYQIGAIAGIIILVLVVLFLLALFI, for which the enrichment score was determined as 4.69.

Consider MKANYSAEERFLLLGFSDWPSLQPVLFALVLLCYLL, for which the enrichment score worked out at 1.4.

Turning to MALERLCSVLKVLLITVLVVEGIAVAQKTQDGQNIG, the enrichment score came to 0.166.

As to RLYEKDWASNASSGLTAQARIIMLIVIAPIICSLSW, the enrichment score turned out to be 0.0545.

For KGDVGVGTIVGSAVFNILCIIGVCGLFAGQVVALSS, the enrichment score was 2.74.

With DGSSFSGRVFRVTFLMLAVSLTVPLLGAMMLLESPI, the enrichment score was 1.83.

In the case of LTSSNTENSPWIRNVIPALLANTCLLVVVAAAASVA, the enrichment score was found to be 4.61.

Consider MVAATVAAAWLLLSAAACAQQEQDFYDFKAVNIRGK, for which the enrichment score came out at 4.52.

Take REEWQYVFLIASLVHYGGVIFYGVFASGEKQPWAEP: the enrichment score was -1.

Turning to QVLKRHRKLFTFGVTFSTFLLALFYITKGGIYVLTQ, the enrichment score was -0.035.

As for HAFSAGLGGAIGYVLGGLDWTQTFLGSWFRTQNQVL, the enrichment score is 1.75.

Turning to DHKFIENIGYVLYGIYNVTMVVVLLTMLIAMITSSY, the enrichment score was 3.69.

On to ILIPIIVGAGLSGLIIVIVIAYVIGRRKSYAGYQTL, for which the enrichment score worked out at 1.28.

With MPGKMVVILGASNILWIMFAASQAFKIETTPESRYL, the enrichment score amounted to 2.58.

As for RVSFLGLDLDAQQARVGQWLLLFLGIALLVATLGLS, the enrichment score stood at 2.31.

For CGACAALGALTASGLLLCLVPWSLRITWMGAHGAGV, the enrichment score is -0.532.

With QQPEPVLGLGSVEQPHEVPSVLGTPLLQPPENFAKG, the enrichment score came out at 1.77.

On to YRMYWFTNFLYDMLFYLVSVCLCVAVIVAFQLTAFT, for which the enrichment score is 2.94.

With YRPPRYQIAIRACFLGFVFGCGTLLSFSQSSRSHFG, the enrichment score was determined as 1.85.

For NSIAATEAEARIFWLGLIICPMIWIVFFFSTLFSLK, the enrichment score turned out to be 3.59.

With YVLLSSSVSFYLPLLVMLFVYARVFVVATRQLRLLG, the enrichment score was determined as 3.14.

For RVRLPGIPHAARNPTHSYSVRLPRKGCSAVAALVRQ, the enrichment score was 2.14.

Take IAVAMGIRFIIMVAIWSAVFLNSLFNQEVQIPLTES: the enrichment score worked out at 0.43.

For the molecule AENSGTTVVYNPYAALSIEQQRQKLPVFKLRNHILY, the enrichment score is -0.593.

QLKKIFQEYGTVGVSLHIGISLISLGIFYMVVSSGV: the enrichment score was 0.986.

As to LSFAGTTALLLQGLFIVLILVGYISVKVMLKSIKTR, the enrichment score worked out at 0.74.

Turning to NARKQLLISAVPAVLILHLKRFHQAGLSLRKVNRHV, the enrichment score turned out to be 3.47.

As for TANSLILVIFILGLFVLGIASILYYYFSMEAASLSL, the enrichment score was 2.17.

In the case of KRQEYRSMKGLRWEDTRDTAAIFLIFSIFIIIGFFI, the enrichment score was -0.279.

For MTPKQSKVVKAILWLCGIQEKGKEELPARAEAIIVS, the enrichment score was -0.141.

Regarding PSQRYPLWYKNMVSLWILFGMAWLALIIKLILSLQE, the enrichment score came to 0.637.

Regarding VVILIFYLITLIGNLFIIILSYLDSHLHTPMYFFLS, the enrichment score was -0.31.

As for VHRFARHVSPLINVLMANVLLLVPPLTNPIVYCVKT, the enrichment score came to 1.15.

For the molecule FVVVLSFLLGGYLLFVLYLAATNQTTNEWYRGDWAW, the enrichment score came to 0.342.

Take GSAGHTTLGITLMIGGVTCILSLICALALAYLDQRA: the enrichment score is 3.1.

As to ALDRMKNPVTKHWRELTGVLILVNSLGGFACNCILH, the enrichment score was found to be 1.11.

As to PRWVPKEALTGLVCLVCFLSATCFTLQSGNYWLEIF, the enrichment score was 0.014.
